Library screening results

Measurements from “University of Dundee, Small-Polar-MMV Screening Library” (2021), ChEMBL document CHEMBL3988442.

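Whole-cell assay for inhibitors of Mycobacterium tuberculosis growth, labelled Cornell in the record; the read-out is not stated. The concentration is filed as 10 mM, unlikely as a test dose, so the dose is not known. Higher means stronger inhibition (inferred from two other growth screens of the library). About 53,000 compounds were tested under these conditions; 1.7% (about 900) showed 50% or more at least once.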

Results are given as percent effect.
The controls that fix the scale are not given in the record; negative values are as filed.
This is an unselected part of the compounds tested.

SMILES: CC(C)c1nnc2n1CCN(C(=O)c1ccc3c(c1)NC(=O)CO3)C2
percent effect: -8.718

SMILES: CC(OCC(F)(F)F)C(=O)NCCN(C)C (stereo not drawn)
percent effect: -12.88

SMILES: COc1cccc2sc(N3CCN(C(=O)c4cc(C)on4)CC3)nc12
percent effect: -40.28

SMILES: O=C(c1ccc(O)c(Cl)c1)N1C[C@@H](CN2CCCCCC2)[C@@H](CO)C1
percent effect: 4.089

SMILES: [H][C@]12CC[C@]([H])(CN(c3nnc(C(C)C)s3)C1)N(CC1CCC1)C2
percent effect: 0.5527

SMILES: CN(C)C(=O)NC1COC2(CCN(Cc3nccn3C)CC2)C1 (stereo not drawn)
percent effect: 18.81

SMILES: Cc1ccc(C)n1-c1ccc(C(=O)NCCNc2ncccn2)cc1
percent effect: 76.43

SMILES: Cn1cnc2ccc(NC(=O)CCCn3cccn3)cc2c1=O
percent effect: -47.03

SMILES: N#Cc1ccc(F)c(CN2CCNC(=O)C2c2cccs2)c1 (stereo not drawn)
percent effect: 1.514

SMILES: COCCn1cnc2ccc(NC(=O)c3c(C)noc3C)cc2c1=O
percent effect: -11.15

SMILES: O=C(O)C(F)(F)F.O=C(O)C(F)(F)F.O=C(O)C(F)(F)F.[H][C@@]12CN(CCOC)CCO[C@]1([H])CN(Cc1ccccn1)C2
percent effect: 18.39

SMILES: O=C(c1cc(C2CC2)[nH]n1)N1CCCN(c2nccs2)CC1
percent effect: 2.058

SMILES: CNC(=O)CS(=O)(=O)C1CCN(S(=O)(=O)c2c(F)cccc2F)CC1
percent effect: 10.89

SMILES: Cc1ccc(CN2CCc3nnc(COCCN(C)C)n3CC2)o1.O=C(O)C(F)(F)F.O=C(O)C(F)(F)F
percent effect: 12.15

SMILES: [H][C@]12CC[C@](O)(CC1)C(COC)N2C(=O)Nc1ccccc1 (stereo partly drawn)
percent effect: -35.59

SMILES: Cl.Fc1ccc(Cc2cnc(C3CCCN3)cn2)cc1 (stereo not drawn)
percent effect: -79.11

SMILES: O=C(O)C(F)(F)F.[H][C@@]12CCN(Cc3ccsc3)[C@]1([H])CC[C@H](C(=O)N1CCOCC1)O2
percent effect: 18.35

SMILES: COc1ncccc1CNC(=O)NC1CCCOc2ccccc21 (stereo not drawn)
percent effect: 9.916

SMILES: COc1ccc2c(c1)CC(NC(=O)NCc1cccs1)CO2 (stereo not drawn)
percent effect: 19.76

SMILES: Cc1ccc(CN(C)C(=O)CCNS(=O)(=O)c2cccnc2)cc1
percent effect: -2.512

SMILES: OC(CN1CC(n2cccn2)C1)c1ccc2c(c1)OCCO2 (stereo not drawn)
percent effect: 18.75

SMILES: CCc1[nH]c2c(CNc3cc(C)nc(NC)n3)cc(C)cc2c1C
percent effect: 30.12

SMILES: O=C(NCC1CC1)c1cc2c(s1)CCN2c1ncccn1
percent effect: 3.06

SMILES: CC(C)NC(=O)N1CCC2(C1)CN(c1ccsc1)C(=O)CN2C.O=C(O)C(F)(F)F (stereo not drawn)
percent effect: -23.86

SMILES: CC(C)n1[nH]c(=O)c2c1NC(=O)CSC2C1CCCCC1 (stereo not drawn)
percent effect: -63.53

SMILES: CC(=O)N(C)Cc1cccc(NC(=O)CCCc2nc(C(C)C)no2)c1
percent effect: 4.617

SMILES: CC(C)c1ccc(-n2cc(O)c(C(=O)O)n2)cc1
percent effect: 21.63

SMILES: CC(C)(C)OC(=O)NC(C)(C)c1noc(CSc2nncs2)n1
percent effect: -8.255

SMILES: Cc1occc1-c1nnc2n1NC(N)=C(C#N)S2
percent effect: 23.68

SMILES: O=S(=O)(C1CC1)N1CCC2(COCc3cnc(-c4cccnc4)nc32)C1 (stereo not drawn)
percent effect: 5.277

SMILES: CC(=O)N1CCCC2(CN(Cc3ccncc3)CCO2)C1 (stereo not drawn)
percent effect: 12.27

SMILES: CNc1ccc(C2CN(c3cc(C)ncn3)CCO2)nc1 (stereo not drawn)
percent effect: 34.11

SMILES: Cc1c(NC(C)C(C)C)cccc1C(=O)NCc1ccnn1C (stereo not drawn)
percent effect: -2.44

SMILES: Cc1noc(C2CCN(C(C)c3nc(C(C)(C)C)no3)CC2)n1 (stereo not drawn)
percent effect: 12.33

SMILES: CCN(Cc1ccncc1)c1cc(C2CCCNC2)nc(C)n1 (stereo not drawn)
percent effect: -31.42

SMILES: COCC(=O)N1CCCC(C(=O)N(C)CCn2ccnc2C)C1 (stereo not drawn)
percent effect: -64.71

SMILES: CCN1CC(O)CN(C(=O)c2ccc(SC)cc2)CC1=O (stereo not drawn)
percent effect: 5.537

SMILES: CCn1c(C2CCCN2Cc2noc(C(C)(C)C)n2)nc2ccccc21 (stereo not drawn)
percent effect: 13.86

SMILES: Cc1nc2c(c(N3C[C@@H](C)[C@@](C)(O)C3)n1)CCC2
percent effect: -15.56

SMILES: COc1cc(NCC(=O)NC(C)(C#N)C(C)C)cc(OC)c1OC (stereo not drawn)
percent effect: 31.81

SMILES: COCCn1cnc2ccc(NC(=O)c3ccccn3)cc2c1=O
percent effect: 20.65

SMILES: Cc1ccc(C(=O)N2CCC3(CC2)C(=O)NCCN3C)cc1O
percent effect: 21.69

SMILES: CCOc1cccc(NS(=O)(=O)c2cc(C(=O)O)cs2)c1
percent effect: -54.96

SMILES: O=C1CC2(CCN(CCO)CC2)CN1Cc1cc(F)cc(F)c1
percent effect: 6.776

SMILES: CCc1nc(CN2CCCC2c2c(C)nn(C)c2OC)no1 (stereo not drawn)
percent effect: -13.86

SMILES: Cc1nnc(C(C)N2CCc3[nH]c4ccccc4c3C2)o1 (stereo not drawn)
percent effect: 28.26

SMILES: [H][C@]12COC[C@H](N(CC)CC)[C@@]1([H])CN(Cc1cnn(C)c1)C2
percent effect: -34.09

SMILES: CN1CCC(Nc2ccc(Cl)cc2OCC(F)(F)F)C1=O (stereo not drawn)
percent effect: 4.127

SMILES: Cc1cc(N2CC[C@H](O)C2)n2nc(C)c(C)c2n1
percent effect: 10.51

SMILES: O=C1CC(c2cccc(O)c2)c2sc(C(=O)O)c(-c3ccccc3)c2N1 (stereo not drawn)
percent effect: -29.39

SMILES: COc1ccccc1OCC(=O)NS(=O)(=O)c1ccc(F)cc1F
percent effect: 22.25

SMILES: CS(=O)(=O)N1CCCC(C(=O)Nc2cnn(Cc3ccc(Cl)cc3)c2)C1 (stereo not drawn)
percent effect: 6.456

SMILES: Cc1nn(-c2ccccn2)c2c1C(c1cnn(C)c1)SCC(=O)N2 (stereo not drawn)
percent effect: -30

Once more, the final 6:

- CN1CCC(Nc2ccc(Cl)cc2OCC(F)(F)F)C1=O (stereo not drawn) : 4.127%
- Cc1cc(N2CC[C@H](O)C2)n2nc(C)c(C)c2n1 : 10.51%
- O=C1CC(c2cccc(O)c2)c2sc(C(=O)O)c(-c3ccccc3)c2N1 (stereo not drawn) : -29.39%
- COc1ccccc1OCC(=O)NS(=O)(=O)c1ccc(F)cc1F : 22.25%
- CS(=O)(=O)N1CCCC(C(=O)Nc2cnn(Cc3ccc(Cl)cc3)c2)C1 (stereo not drawn) : 6.456%
- Cc1nn(-c2ccccn2)c2c1C(c1cnn(C)c1)SCC(=O)N2 (stereo not drawn) : -30%